From patent publication US12419871B2, “Biomolecules involved in Alzheimer's disease” (ELECTROPHORETICS LIMITED, priority 2015, dated 2025)

B1: O14936 (protein, UniProt O14936 1-926, looked up)
chain: MADDDVLFEDVYELCEVIGKGPFSVVRRCINRETGQQFAVKIVDVAKFTSSPGLSTEDLKREASICHMLKHPHIVELLETYSSDGMLYMVFEFMDGADLCFEIVKRADAGFVYSEAVASHYMRQILEALRYCHDNNIIHRDVKPHCVLLASKENSAPVKLGGFGVAIQLGESGLVAGGRVGTPHFMAPEVVKREPYGKPVDVWGCGVILFILLSGCLPFYGTKERLFEGIIKGKYKMNPRQWSHISESAKDLVRRMLMLDPAERITVYEALNHPWLKERDRYAYKIHLPETVEQLRKFNARRKLKGAVLAAVSSHKFNSFYGDPPEELPDFSEDPTSSGLLAAERAVSQVLDSLEEIHALTDCSEKDLDFLHSVFQDQHLHTLLDLYDKINTKSSPQIRNPPSDAVQRAKEVLEEISCYPENNDAKELKRILTQPHFMALLQTHDVVAHEVYSDEALRVTPPPTSPYLNGDSPESANGDMDMENVTRVRLVQFQKNTDEPMGITLKMNELNHCIVARIMHGGMIHRQGTLHVGDEIREINGISVANQTVEQLQKMLREMRGSITFKIVPSYRTQSSSCERDSPSTSRQSPANGHSSTNNSVSDLPSTTQPKGRQIYVRAQFEYDPAKDDLIPCKEAGIRFRVGDIIQIISKDDHNWWQGKLENSKNGTAGLIPSPELQEWRVACIAMEKTKQEQQASCTWFGKKKKQYKDKYLAKHNAVFDQLDLVTYEEVVKLPAFKRKTLVLLGAHGVGRRHIKNTLITKHPDRFAYPIPHTTRPPKKDEENGKNYYFVSHDQMMQDISNNEYLEYGSHEDAMYGTKLETIRKIHEQGLIAILDVEPQALKVLRTAEFAPFVVFIAAPTITPGLNEDESLQRLQKESDILQRTYAHYFDLTIINNEIDETIRHLEEAVELVCTAPQWVPVSWVY
modifications: full-length
B2: Q9Y285 (protein, UniProt Q9Y285 1-508, looked up)
chain: MADGQVAELLLRRLEASDGGLDSAELAAELGMEHQAVVGAVKSLQALGEVIEAELRSTKHWELTAEGEEIAREGSHEARVFRSIPPEGLAQSELMRLPSGKVGFSKAMSNKWIRVDKSAADGPRVFRVVDSMEDEVQRRLQLVRGGQAEKLGEKERSELRKRKLLAEVTLKTYWVSKGSAFSTSISKQETELSPEMISSGSWRDRPFKPYNFLAHGVLPDSGHLHPLLKVRSQFRQIFLEMGFTEMPTDNFIESSFWNFDALFQPQQHPARDQHDTFFLRDPAEALQLPMDYVQRVKRTHSQGGYGSQGYKYNWKLDEARKNLLRTHTTSASARALYRLAQKKPFTPVKYFSIDRVFRNETLDATHLAEFHQIEGVVADHGLTLGHLMGVLREFFTKLGITQLRFKPAYNPYTEPSMEVFSYHQGLKKWVEVGNSGVFRPEMLLPMGLPENVSVIAWGLSLERPTMIKYGINNIRELVGHKVNLQMVYDSPLCRLDAEPRPPPTQEAA
modifications: full-length
B3: Q9GZP4 (protein, UniProt Q9GZP4 1-211, looked up)
chain: MSHGHSHGGGGCRCAAEREEPPEQRGLAYGLYLRIDLERLQCLNESREGSGRGVFKPWEERTDRSKFVESDADEELLFNIPFTGNVKLKGIIIMGEDDDSHPSEMRLYKNIPQMSFDDTEREPDQTFSLNRDLTGELEYATKISRFSNVYHLSIHISKNFGADTTKVFYIGLRGEWTELRRHEVTICNYEASANPADHRVHQVTPQTHFIS
modifications: full-length
B4: Q5SRE7 (protein, UniProt Q5SRE7 1-291, looked up)
chain: MACLSPSQLQKFQQDGFLVLEGFLSAEECVAMQQRIGEIVAEMDVPLHCRTEFSTQEEEQLRAQGSTDYFLSSGDKIRFFFEKGVFDEKGNFLVPPEKSINKIGHALHAHDPVFKSITHSFKVQTLARSLGLQMPVVVQSMYIFKQPHFGGEVSPHQDASFLYTEPLGRVLGVWIAVEDATLENGCLWFIPGSHTSGVSRRMVRAPVGSAPGTSFLGSEPARDNSLFVPTPVQRGALVLIHGEVVHKSKQNLSDRSRQAYTFHLMEASGTTWSPENWLQPTAELPFPQLYT
modifications: full-length
B5: Q9H008 (protein, UniProt Q9H008 1-270, looked up)
chain: MAPWGKRLAGVRGVLLDISGVLYDSGAGGGTAIAGSVEAVARLKRSRLKVRFCTNESQKSRAELVGQLQRLGFDISEQEVTAPAPAACQILKEQGLRPYLLIHDGVRSEFDQIDTSNPNCVVIADAGESFSYQNMNNAFQVLMELEKPVLISLGKGRYYKETSGLMLDVGPYMKALEYACGIKAEVVGKPSPEFFKSALQAIGVEAHQAVMIGDDIVGDVGGAQRCGMRALQVRTGKFRPSDEHHPEVKADGYVDNLAEAVDLLLQHADK
modifications: full-length
B6: Q02790 (protein, UniProt Q02790 1-459, looked up)
chain: MTAEEMKATESGAQSAPLPMEGVDISPKQDEGVLKVIKREGTGTEMPMIGDRVFVHYTGWLLDGTKFDSSLDRKDKFSFDLGKGEVIKAWDIAIATMKVGEVCHITCKPEYAYGSAGSPPKIPPNATLVFEVELFEFKGEDLTEEEDGGIIRRIQTRGEGYAKPNEGAIVEVALEGYYKDKLFDQRELRFEIGEGENLDLPYGLERAIQRMEKGEHSIVYLKPSYAFGSVGKEKFQIPPNAELKYELHLKSFEKAKESWEMNSEEKLEQSTIVKERGTVYFKEGKYKQALLQYKKIVSWLEYESSFSNEEAQKAQALRLASHLNLAMCHLKLQAFSAAIESCNKALELDSNNEKGLFRRGEAHLAVNDFELARADFQKVLQLYPNNKAAKTQLAVCQQRIRRQLAREKKLYANMFERLAEEENKAKAEASSGDHPTDTEMKEEQKSNTAGSQSQVETEA
modifications: full-length
B7: A6NDG6 (protein, UniProt A6NDG6 1-321, looked up)
chain: MAAAEAGGDDARCVRLSAERAQALLADVDTLLFDCDGVLWRGETAVPGAPEALRALRARGKRLGFITNNSSKTRAAYAEKLRRLGFGGPAGPGASLEVFGTAYCTALYLRQRLAGAPAPKAYVLGSPALAAELEAVGVASVGVGPEPLQGEGPGDWLHAPLEPDVRAVVVGFDPHFSYMKLTKALRYLQQPGCLLVGTNMDNRLPLENGRFIAGTGCLVRAVEMAAQRQADIIGKPSRFIFDCVSQEYGINPERTVMVGDRLDTDILLGATCGLKTILTLTGVSTLGDVKNNQESDCVSKKKMVPDFYVDSIADLLPALQG
modifications: full-length
B8: Q9UBV8 (protein, UniProt Q9UBV8 1-284, looked up)
chain: MASYPYRQGCPGAAGQAPGAPPGSYYPGPPNSGGQYGSGLPPGGGYGGPAPGGPYGPPAGGGPYGHPNPGMFPSGTPGGPYGGAAPGGPYGQPPPSSYGAQQPGLYGQGGAPPNVDPEAYSWFQSVDSDHSGYISMKELKQALVNCNWSSFNDETCLMMINMFDKTKSGRIDVYGFSALWKFIQQWKNLFQQYDRDRSGSISYTELQQALSQMGYNLSPQFTQLLVSRYCPRSANPAMQLDRFIQVCTQLQVLTEAFREKDTAVQGNIRLSFEDFVTMTASRML
modifications: full-length
B9: Q09470 (protein, UniProt Q09470 1-495, looked up)
chain: MTVMSGENVDEASAAPGHPQDGSYPRQADHDDHECCERVVINISGLRFETQLKTLAQFPNTLLGNPKKRMRYFDPLRNEYFFDRNRPSFDAILYYYQSGGRLRRPVNVPLDMFSEEIKFYELGEEAMEKFREDEGFIKEEERPLPEKEYQRQVWLLFEYPESSGPARVIAIVSVMVILISIVIFCLETLPELKDDKDFTGTVHRIDNTTVIYNSNIFTDPFFIVETLCIIWFSFELVVRFFACPSKTDFFKNIMNFIDIVAIIPYFITLGTEIAEQEGNQKGEQATSLAILRVIRLVRVFRIFKLSRHSKGLQILGQTLKASMRELGLLIFFLFIGVILFSSAVYFAEAEEAESHFSSIPDAFWWAVVSMTTVGYGDMYPVTIGGKIVGSLCAIAGVLTIALPVPVIVSNFNYFYHRETEGEEQAQLLHVSSPNLASDSDLSRRSSSTMSKSEYMEIEEDMNNSIAHYRQVNIRTANCTTANQNCVNKSKLLTDV
modifications: full-length
B10: Q8TBB6 (protein, UniProt Q8TBB6 1-771, looked up)
chain: MSGFFTSLDPRRVQWGAAWYAMHSRILRTKPVESMLEGTGTTTAHGTKLAQVLTTVDLISLGVGSCVGTGMYVVSGLVAKEMAGPGVIVSFIIAAVASILSGVCYAEFGVRVPKTTGSAYTYSYVTVGEFVAFFIGWNLILEYLIGTAAGASALSSMFDSLANHTISRWMADSVGTLNGLGKGEESYPDLLALLIAVIVTIIVALGVKNSIGFNNVLNVLNLAVWVFIMIAGLFFINGKYWAEGQFLPHGWSGVLQGAATCFYAFIGFDIIATTGEEAKNPNTSIPYAITASLVICLTAYVSVSVILTLMVPYYTIDTESPLMEMFVAHGFYAAKFVVAIGSVAGLTVSLLGSLFPMPRVIYAMAGDGLLFRFLAHVSSYTETPVVACIVSGFLAALLALLVSLRDLIEMMSIGTLLAYTLVSVCVLLLRYQPESDIDGFVKFLSEEHTKKKEGILADCEKEACSPVSEGDEFSGPATNTCGAKNLPSLGDNEMLIGKSDKSTYNVNHPNYGTVDMTTGIEADESENIYLIKLKKLIGPHYYTMRIRLGLPGKMDRPTAATGHTVTICVLLLFILMFIFCSFIIFGSDYISEQSWWAILLVVLMVLLISTLVFVILQQPENPKKLPYMAPCLPFVPAFAMLVNIYLMLKLSTITWIRFAVWCFVGLLIYFGYGIWNSTLEISAREEALHQSTYQRYDVDDPFSVEEGFSYATEGESQEDWGGPTEDKGFYYQQMSDAKANGRTSSKAKSKSKHKQNSEALIANDELDYSPE
modifications: full-length
B11: P11766 (protein, UniProt P11766 1-374, looked up)
chain: MANEVIKCKAAVAWEAGKPLSIEEIEVAPPKAHEVRIKIIATAVCHTDAYTLSGADPEGCFPVILGHEGAGIVESVGEGVTKLKAGDTVIPLYIPQCGECKFCLNPKTNLCQKIRVTQGKGLMPDGTSRFTCKGKTILHYMGTSTFSEYTVVADISVAKIDPLAPLDKVCLLGCGISTGYGAAVNTAKLEPGSVCAVFGLGGVGLAVIMGCKVAGASRIIGVDINKDKFARAKEFGATECINPQDFSKPIQEVLIEMTDGGVDYSFECIGNVKVMRAALEACHKGWGVSVVVGVAASGEEIATRPFQLVTGRTWKGTAFGGWKSVESVPKLVSEYMSKKIKVDEFVTHNLSFDEINKAFELMHSGKSIRTVVKI
modifications: full-length
B12: P15259 (protein, UniProt P15259 1-253, looked up)
chain: MATHRLVMVRHGESTWNQENRFCGWFDAELSEKGTEEAKRGAKAIKDAKMEFDICYTSVLKRAIRTLWAILDGTDQMWLPVVRTWRLNERHYGGLTGLNKAETAAKHGEEQVKIWRRSFDIPPPPMDEKHPYYNSISKERRYAGLKPGELPTCESLKDTIARALPFWNEEIVPQIKAGKRVLIAAHGNSLRGIVKHLEGMSDQAIMELNLPTGIPIVYELNKELKPTKPMQFLGDEETVRKAMEAVAAQGKAK
modifications: full-length

Assay: TMTcalibrator quantification of regulated proteins in AD CSF versus control
Design: species or system human
Conditions: CSF of AD patient versus control; non-modified peptides of each protein summed for three control and three AD cases

Molecule	Log2 AD/Control
B1	1.07
B2	0.72
B3	0.71
B4	0.65
B5	0.74
B6	0.73
B7	1.05
B8	0.98
B9	0.73
B10	0.66
B11	0.87
B12	1.12
